# Laboratory results: the supplement of paper PMC11732987, “Enantioselective OTUD7B fragment discovery through chemoproteomics screening and high-throughput optimisation” (Communications Chemistry, 2025)
# The chains behind the UniProt entries cited, without tags or fusion partners. Where a name states a change or a piece, a line headed by the entry shows the natural chain unless it says otherwise. Residues count along the entry.
# UniProt P25445, whole entry, looked up: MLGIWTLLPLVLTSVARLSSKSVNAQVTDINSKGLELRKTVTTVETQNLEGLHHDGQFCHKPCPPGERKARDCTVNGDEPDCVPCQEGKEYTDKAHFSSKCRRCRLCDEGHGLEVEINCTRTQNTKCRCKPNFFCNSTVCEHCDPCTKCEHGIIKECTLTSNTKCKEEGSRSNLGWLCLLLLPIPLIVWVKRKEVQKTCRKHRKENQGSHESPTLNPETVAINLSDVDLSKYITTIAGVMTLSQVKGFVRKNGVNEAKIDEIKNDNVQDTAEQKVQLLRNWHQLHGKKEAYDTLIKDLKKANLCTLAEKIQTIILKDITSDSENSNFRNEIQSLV
# UniProt O75369, whole entry, looked up: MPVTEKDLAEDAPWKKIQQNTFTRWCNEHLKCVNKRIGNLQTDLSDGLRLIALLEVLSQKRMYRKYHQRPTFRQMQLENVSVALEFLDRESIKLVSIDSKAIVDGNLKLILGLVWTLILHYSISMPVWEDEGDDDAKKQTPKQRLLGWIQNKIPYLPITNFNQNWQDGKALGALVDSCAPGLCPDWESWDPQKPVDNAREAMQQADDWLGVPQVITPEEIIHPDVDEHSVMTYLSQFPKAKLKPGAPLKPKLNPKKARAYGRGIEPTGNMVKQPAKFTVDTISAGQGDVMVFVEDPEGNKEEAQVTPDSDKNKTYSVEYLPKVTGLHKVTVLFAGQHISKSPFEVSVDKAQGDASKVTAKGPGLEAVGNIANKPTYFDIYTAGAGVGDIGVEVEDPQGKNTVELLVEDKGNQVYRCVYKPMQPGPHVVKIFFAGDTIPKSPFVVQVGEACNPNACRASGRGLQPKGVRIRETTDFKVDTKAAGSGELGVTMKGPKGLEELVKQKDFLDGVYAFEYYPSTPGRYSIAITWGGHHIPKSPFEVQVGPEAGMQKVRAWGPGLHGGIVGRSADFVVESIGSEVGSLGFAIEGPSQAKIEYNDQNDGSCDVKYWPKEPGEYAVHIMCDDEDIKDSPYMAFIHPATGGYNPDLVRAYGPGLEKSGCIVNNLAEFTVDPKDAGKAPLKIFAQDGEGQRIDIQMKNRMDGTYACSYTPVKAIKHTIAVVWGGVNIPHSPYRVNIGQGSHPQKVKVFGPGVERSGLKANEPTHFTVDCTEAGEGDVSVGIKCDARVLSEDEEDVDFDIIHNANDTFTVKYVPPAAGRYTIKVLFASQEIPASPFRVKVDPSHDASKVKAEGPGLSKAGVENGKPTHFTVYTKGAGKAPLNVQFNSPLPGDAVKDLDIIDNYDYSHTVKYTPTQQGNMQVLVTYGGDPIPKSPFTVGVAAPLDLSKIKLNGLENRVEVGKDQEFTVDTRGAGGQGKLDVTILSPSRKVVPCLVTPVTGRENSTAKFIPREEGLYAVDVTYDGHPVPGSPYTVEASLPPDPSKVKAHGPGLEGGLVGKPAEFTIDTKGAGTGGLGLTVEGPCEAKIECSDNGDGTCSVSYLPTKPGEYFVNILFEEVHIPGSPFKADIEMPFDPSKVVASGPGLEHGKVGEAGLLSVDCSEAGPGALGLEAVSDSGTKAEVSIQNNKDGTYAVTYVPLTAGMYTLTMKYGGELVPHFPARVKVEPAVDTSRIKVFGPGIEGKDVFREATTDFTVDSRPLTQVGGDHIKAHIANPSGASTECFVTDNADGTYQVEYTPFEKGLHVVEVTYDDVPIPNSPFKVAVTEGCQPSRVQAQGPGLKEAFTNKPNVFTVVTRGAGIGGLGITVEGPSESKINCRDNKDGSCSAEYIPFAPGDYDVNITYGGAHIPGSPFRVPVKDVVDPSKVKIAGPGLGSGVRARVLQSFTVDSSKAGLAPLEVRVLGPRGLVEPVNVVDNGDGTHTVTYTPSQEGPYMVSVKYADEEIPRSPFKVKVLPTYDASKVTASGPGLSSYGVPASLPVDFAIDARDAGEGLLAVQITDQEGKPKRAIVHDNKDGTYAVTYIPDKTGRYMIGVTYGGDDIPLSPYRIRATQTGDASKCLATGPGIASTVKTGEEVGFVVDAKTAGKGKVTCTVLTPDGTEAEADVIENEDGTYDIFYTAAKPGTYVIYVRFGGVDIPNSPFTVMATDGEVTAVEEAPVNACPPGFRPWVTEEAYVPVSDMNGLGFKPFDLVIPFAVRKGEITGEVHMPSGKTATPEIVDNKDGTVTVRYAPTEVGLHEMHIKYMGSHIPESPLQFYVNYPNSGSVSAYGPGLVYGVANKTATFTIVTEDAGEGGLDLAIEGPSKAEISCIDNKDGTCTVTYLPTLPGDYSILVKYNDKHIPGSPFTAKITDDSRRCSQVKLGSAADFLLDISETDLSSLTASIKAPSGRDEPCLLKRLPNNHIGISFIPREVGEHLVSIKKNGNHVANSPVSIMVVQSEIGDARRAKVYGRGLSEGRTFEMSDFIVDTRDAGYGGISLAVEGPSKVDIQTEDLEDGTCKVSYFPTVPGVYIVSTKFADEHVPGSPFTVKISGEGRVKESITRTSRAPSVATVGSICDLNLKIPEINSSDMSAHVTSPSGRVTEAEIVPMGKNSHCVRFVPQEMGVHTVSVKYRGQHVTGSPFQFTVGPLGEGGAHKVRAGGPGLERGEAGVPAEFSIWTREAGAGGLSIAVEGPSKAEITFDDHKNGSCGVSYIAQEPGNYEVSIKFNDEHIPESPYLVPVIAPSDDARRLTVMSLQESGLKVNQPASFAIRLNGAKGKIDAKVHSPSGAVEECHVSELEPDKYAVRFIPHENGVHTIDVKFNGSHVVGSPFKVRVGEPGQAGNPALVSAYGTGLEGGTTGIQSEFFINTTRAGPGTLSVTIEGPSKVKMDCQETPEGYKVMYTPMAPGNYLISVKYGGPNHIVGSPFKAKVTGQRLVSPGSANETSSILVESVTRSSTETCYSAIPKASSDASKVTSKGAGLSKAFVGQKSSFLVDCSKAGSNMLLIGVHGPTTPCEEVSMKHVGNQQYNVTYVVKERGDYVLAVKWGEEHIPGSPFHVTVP
# UniProt Q96IG2: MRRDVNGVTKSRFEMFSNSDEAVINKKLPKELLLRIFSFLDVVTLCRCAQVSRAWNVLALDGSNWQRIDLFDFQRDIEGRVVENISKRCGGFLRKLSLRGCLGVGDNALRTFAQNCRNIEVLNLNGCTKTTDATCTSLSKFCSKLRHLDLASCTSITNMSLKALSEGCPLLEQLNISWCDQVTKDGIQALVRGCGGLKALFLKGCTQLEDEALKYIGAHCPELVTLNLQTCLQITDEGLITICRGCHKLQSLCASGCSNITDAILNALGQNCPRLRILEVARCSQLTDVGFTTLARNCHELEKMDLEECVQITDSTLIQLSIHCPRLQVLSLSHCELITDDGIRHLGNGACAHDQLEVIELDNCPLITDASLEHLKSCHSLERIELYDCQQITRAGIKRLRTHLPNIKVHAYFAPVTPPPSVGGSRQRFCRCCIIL
# UniProt Q96ME1: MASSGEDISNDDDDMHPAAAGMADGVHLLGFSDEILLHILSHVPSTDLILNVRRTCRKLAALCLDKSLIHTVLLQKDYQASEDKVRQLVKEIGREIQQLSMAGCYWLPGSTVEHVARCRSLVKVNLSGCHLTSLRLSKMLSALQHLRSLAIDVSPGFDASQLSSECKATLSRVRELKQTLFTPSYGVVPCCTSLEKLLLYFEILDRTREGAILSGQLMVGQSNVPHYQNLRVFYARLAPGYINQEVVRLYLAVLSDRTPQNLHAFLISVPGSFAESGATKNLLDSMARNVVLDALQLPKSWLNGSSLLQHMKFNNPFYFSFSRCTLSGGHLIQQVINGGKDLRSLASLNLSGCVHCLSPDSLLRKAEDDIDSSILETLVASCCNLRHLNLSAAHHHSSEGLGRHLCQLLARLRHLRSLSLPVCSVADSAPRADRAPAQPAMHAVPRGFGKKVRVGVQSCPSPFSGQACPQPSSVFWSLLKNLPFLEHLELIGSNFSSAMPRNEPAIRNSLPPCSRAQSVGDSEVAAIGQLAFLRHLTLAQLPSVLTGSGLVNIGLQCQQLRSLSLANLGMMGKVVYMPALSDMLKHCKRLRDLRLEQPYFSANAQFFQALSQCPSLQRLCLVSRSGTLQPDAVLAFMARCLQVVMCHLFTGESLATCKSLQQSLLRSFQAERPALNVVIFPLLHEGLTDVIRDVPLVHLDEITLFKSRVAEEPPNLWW
# UniProt Q9H334, 234-266: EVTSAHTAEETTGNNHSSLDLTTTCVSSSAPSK
# UniProt O95363: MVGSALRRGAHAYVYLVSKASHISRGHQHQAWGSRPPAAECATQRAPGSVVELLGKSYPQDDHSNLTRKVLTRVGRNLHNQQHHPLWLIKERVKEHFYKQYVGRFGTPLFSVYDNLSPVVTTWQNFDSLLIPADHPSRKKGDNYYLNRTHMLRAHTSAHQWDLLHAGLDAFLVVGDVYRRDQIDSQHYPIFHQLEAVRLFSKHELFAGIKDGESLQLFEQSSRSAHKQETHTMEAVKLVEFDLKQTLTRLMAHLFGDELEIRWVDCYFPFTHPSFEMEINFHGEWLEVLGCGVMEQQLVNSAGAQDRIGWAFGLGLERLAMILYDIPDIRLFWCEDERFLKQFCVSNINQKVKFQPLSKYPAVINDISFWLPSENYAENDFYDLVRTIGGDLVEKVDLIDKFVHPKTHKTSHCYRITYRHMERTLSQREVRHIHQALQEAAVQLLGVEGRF
# UniProt P16591: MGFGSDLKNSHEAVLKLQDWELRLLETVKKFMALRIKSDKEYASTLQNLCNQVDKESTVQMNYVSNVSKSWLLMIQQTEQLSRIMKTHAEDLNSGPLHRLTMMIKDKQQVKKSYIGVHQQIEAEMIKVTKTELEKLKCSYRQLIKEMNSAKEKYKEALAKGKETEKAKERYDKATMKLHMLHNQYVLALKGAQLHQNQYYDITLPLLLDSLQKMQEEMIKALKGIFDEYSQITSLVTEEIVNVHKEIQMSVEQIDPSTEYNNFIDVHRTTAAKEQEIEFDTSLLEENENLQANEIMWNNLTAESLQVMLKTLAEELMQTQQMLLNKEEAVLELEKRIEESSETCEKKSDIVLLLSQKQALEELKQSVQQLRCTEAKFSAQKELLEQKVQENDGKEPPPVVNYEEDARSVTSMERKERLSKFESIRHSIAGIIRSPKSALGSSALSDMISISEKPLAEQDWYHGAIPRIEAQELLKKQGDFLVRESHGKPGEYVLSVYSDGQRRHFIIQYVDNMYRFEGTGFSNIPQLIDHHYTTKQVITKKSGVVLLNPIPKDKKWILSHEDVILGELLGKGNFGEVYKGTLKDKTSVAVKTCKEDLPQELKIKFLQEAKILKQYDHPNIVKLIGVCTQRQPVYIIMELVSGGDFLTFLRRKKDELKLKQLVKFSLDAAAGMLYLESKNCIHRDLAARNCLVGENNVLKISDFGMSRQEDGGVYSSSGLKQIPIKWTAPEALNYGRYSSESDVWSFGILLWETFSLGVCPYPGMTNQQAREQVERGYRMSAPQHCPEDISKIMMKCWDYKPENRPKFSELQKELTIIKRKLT
# UniProt Q14192: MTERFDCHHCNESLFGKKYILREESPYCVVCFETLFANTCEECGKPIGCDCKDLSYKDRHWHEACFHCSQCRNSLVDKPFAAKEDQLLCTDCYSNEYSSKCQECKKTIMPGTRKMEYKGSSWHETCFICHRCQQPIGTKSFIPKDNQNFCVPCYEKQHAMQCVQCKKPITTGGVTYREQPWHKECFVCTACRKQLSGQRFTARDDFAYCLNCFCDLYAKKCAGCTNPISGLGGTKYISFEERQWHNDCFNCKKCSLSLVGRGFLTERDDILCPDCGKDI
# UniProt Q9Y613, 40-60: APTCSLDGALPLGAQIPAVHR
# UniProt P22087: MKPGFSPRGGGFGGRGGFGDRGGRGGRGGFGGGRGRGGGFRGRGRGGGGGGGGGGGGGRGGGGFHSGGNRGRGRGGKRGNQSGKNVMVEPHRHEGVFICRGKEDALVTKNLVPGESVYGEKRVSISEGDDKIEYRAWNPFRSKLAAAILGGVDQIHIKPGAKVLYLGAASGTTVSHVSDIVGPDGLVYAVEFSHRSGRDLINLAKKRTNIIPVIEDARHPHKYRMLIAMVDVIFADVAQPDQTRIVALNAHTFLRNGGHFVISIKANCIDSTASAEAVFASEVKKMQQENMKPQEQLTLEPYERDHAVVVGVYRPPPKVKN
# UniProt Q8IY81, 188-209: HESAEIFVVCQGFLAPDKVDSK
# UniProt P85037, 236-259: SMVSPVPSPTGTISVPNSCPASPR
# UniProt O75879, 213-237: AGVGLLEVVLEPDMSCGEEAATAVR
# UniProt Q0JRZ9, 604-626: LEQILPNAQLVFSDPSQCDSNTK
# UniProt Q06547, whole entry, looked up: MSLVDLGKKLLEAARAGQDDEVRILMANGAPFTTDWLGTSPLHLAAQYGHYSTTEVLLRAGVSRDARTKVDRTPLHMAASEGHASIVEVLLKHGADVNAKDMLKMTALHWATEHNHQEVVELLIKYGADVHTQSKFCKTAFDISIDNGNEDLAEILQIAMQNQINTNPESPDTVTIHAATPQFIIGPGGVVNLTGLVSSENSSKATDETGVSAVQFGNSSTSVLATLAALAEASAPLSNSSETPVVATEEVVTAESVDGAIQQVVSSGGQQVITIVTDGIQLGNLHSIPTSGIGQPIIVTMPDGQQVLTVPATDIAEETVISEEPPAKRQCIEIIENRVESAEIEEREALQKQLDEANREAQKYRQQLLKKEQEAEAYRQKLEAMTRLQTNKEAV
# The list shows a part of the results. The data scatter; read single values as rough.
# What was measured:
# [1] = compound: ClCC(=O)N[C@@H]1CCCc2ccccc12; assay: log2 mean competition ratio of IA-DTB cysteine labelling (DMSO/compound) (log2 ratio); higher = stronger cysteine engagement by compound; conditions: treatment time: 4 h, cell line lysate: HEK293T
# Description: (§1)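 IA-DTB competitive cysteine chemoproteomics in HEK293T RIPA lysate. Lysates were treated with compound 29 or 30 at 50 or 200 µM for 4 h, then IA-DTB (500 µM, 1 h), trypsin-digested, NeutrAvidin-enriched and analysed by diaPASEF. Competition ratio = intensity DMSO / intensity compound (n=4 treated, n=64 DMSO); binding: mean log2 CR ≥ 1 and p ≤ 0.05 plus QC filters. Target is the cysteine site.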
# [2] = compound: ClCC(=O)N[C@H]1CCCc2ccccc12; assay: as above; conditions: treatment time: 4 h, cell line lysate: HEK293T
# Description: as §1
Target,log2 mean competition ratio ([1]; 50 µM),log2 mean competition ratio ([1]; 200 µM),log2 mean competition ratio ([2]; 50 µM),log2 mean competition ratio ([2]; 200 µM)
FAS C304 (UniProt P25445),0.12,-0.00879,0.252,0.0112
FKBP5 C394 (UniProt Q13451),0.317,0.0976,0.606,0.163
FLNB C1326 (UniProt O75369),-0.204,0.124,-0.349,-0.01
FBXL20 C101 (UniProt Q96IG2),0.2,0.339,0.0134,0.266
FBXL18 C423 (UniProt Q96ME1),-0.199,0.156,-0.0768,0.133
FLNC C1103 (UniProt Q14315),-0.237,0.656,-0.101,0.0988
FOXP1 C258 (UniProt Q9H334),-0.593,-0.104,0.121,-0.352
FARS2 C334 (UniProt O95363),-0.212,-0.188,-0.216,-0.0399
GALK2 C303 (UniProt Q01415),0.55,-0.0474,0.246,0.165
FER C690 (UniProt P16591),0.0841,0.113,-0.227,0.144
FHL2 C132 (UniProt Q14192),-0.087,-0.162,0.288,0.103
GAPVD1 C789 (UniProt Q14C86),-0.0868,-0.048,0.112,0.0171
FHOD1 C164 (UniProt Q9Y613),-0.0355,-0.154,-0.308,-0.0586
FLNB C2501 (UniProt O75369),-0.0906,-0.0479,-0.207,-0.0376
FBL C99 (UniProt P22087),0.0716,0.0322,0.152,-0.0109
FBXL18 C324 (UniProt Q96ME1),0.068,0.0782,-0.434,-0.00256
FBN2 C149 (UniProt P35556),0.135,0.0651,0.315,0.355
FOXM1 C526,0.834,0.394,-0.0574,0.507
FTSJ3 C197 (UniProt Q8IY81),-0.182,0.26,-0.14,-0.108
FAT1 C4512 (UniProt Q14517),-0.287,-0.144,-0.194,0.426
FXR1 C129 (UniProt P51114),0.0768,-0.163,-0.246,-0.11
FASN C1141,0.0107,0.0793,-0.119,0.0445
FOXC1 C135,0.268,0.449,0.0264,0.327
FLNA C2107,0.734,-0.000867,0.508,0.0247

# Taken from above.
# log2 mean competition ratio ([1]; 200 µM) with FBXL18 C324 (UniProt Q96ME1) reads 0.0782
# log2 mean competition ratio ([2]; 50 µM) with FHL2 C132 (UniProt Q14192) reads 0.288
# log2 mean competition ratio ([2]; 50 µM) with FAS C304 (UniProt P25445) reads 0.252
# log2 mean competition ratio ([2]; 200 µM) with FAT1 C4512 (UniProt Q14517) reads 0.426

# Carrying on.

Target,log2 mean competition ratio ([1]; 50 µM),log2 mean competition ratio ([1]; 200 µM),log2 mean competition ratio ([2]; 50 µM),log2 mean competition ratio ([2]; 200 µM)
FLI1 C83 (UniProt Q01543),-0.0506,0.284,-0.0475,0.36
FOXK1 C254 (UniProt P85037),0.0986,0.441,0.0637,0.071
FEM1B C129 (UniProt Q9UK73),-0.172,-0.306,-0.366,0.0547
FASN C1471,-0.429,-0.0631,0.374,-0.188
FBXO5 C95 (UniProt Q9UKT4),0.209,0.0927,-0.251,0.00134
GATB C228 (UniProt O75879),-0.362,0.211,-0.597,0.0508
FBXO7 C286 (UniProt Q9Y3I1),-0.12,-0.0909,-0.322,0.106
FTSJ3 C577 (UniProt Q8IY81),-0.284,0.000919,-0.101,0.103
FLNB C1868 (UniProt O75369),-0.0616,-0.279,0.0852,-0.0521
FGD1 C739,-0.13,-0.00335,-0.431,-0.219
FXR2 C282 (UniProt P51116),-0.0818,0.235,-0.13,0.202
FBXW9 C240 (UniProt Q5XUX1),0.177,-0.0307,-0.236,-0.198
GARS1 C461,-0.0889,-0.134,0.383,-0.049
FRMD4A C183,0.0397,0.317,-0.0856,-0.0554
FBXO21 C66 (UniProt O94952),-0.0462,-0.264,-0.224,-0.0147
GAREM1 C9,0.122,-0.0582,0.224,0.273
FHOD1 C43 (UniProt Q9Y613),0.478,0.0673,-0.351,-0.163
FCHO2 C621 (UniProt Q0JRZ9),0.268,0.334,-0.0116,0.0069
GABPB1 C331 (UniProt Q06547),-0.434,-0.138,-0.211,-0.0403
GARRE1 C573,-0.104,-0.142,0.261,0.161
FGFR4 C172 (UniProt P22455),-0.152,-0.0652,-0.215,0.158
GAB1 C8 (UniProt Q13480),0.0686,-0.00887,-0.0811,0.267
FBXL2 C88,-0.0724,0.184,-0.121,0.306
